Results from patent publication US20240215576A1, “HEAT-RESISTANT MOLD GROWTH INHIBITOR, FOOD AND DRINK IN WHICH GROWTH OF HEAT-RESISTANT MOLD IS INHIBITED, AND METHOD FOR INHIBITING GROWTH OF HEAT-RESISTANT MOLD” (NIPPON SHINYAKU CO., LTD., priority 2021, published 2024).
Where a name gives a salt, the structure may show the parent alone. Some results were stated once for a whole list of compounds, not compound by compound. For some of these results: At least one structure is not confirmed: it was looked up by name or label, or the drawing left a doubt.

How the values were obtained:
B. fulva [1] = test: Growth of B. fulva in Trypticase soy broth medium stored 7 days at 25° C.; format: cell-based, Byssochlamys fulva; settings: 1000 ppm
Procedure: (§1) Diethyl fumarate and 2-decenoic acid were prepared for use in Examples. In addition, the following components reported to have a growth inhibition effect against normal mold (non-heat-resistant mold) were prepared for use in Comparative Examples: palmitic acid, trans-anethole, benzyl alcohol, cinnamic acid, hinokitiol, salicylic acid, hexanal, 2-mercapto benzothiazole, p-cymene, 1,8-cineole, α-pinene, estragole, 4-hydroxy-3,5-dimethoxybenzoic acid, and linalyl acetate. Then, each component was added to a medium of Trypticase soy broth such that the concentration of each component was as shown in Table 3 below.
(§2) These media were stored for 7 days under an atmosphere at 25° C. […] In Table, those showing the growth are represented by “+,” and those showing no growth are represented by “−.”

N. primulina [2] = test: Growth of N. primulina in Trypticase soy broth medium stored 7 days at 25° C.; format: cell-based, Neosartorya primulina; settings: 1000 ppm
Procedure: as §1, §2

N. primulina [3] = test: Growth of N. primulina in tomato juice stored at 25° C.; format: cell-based, Neosartorya primulina; settings: 70 or 270 ppm
Procedure: Diethyl fumarate or 2-decenoic acid was added to tomato juice (100% pure, salt-free) such that the concentration of the component was as shown in Table 2 below. […] In Table 2, those showing the growth of N. primulina are represented by “+,” and those showing no growth are represented by “−.”

B. fulva [4] = test: Growth of B. fulva in tomato juice stored at 25° C.; format: cell-based, Byssochlamys fulva; settings: 70 or 270 ppm
Procedure: Diethyl fumarate or 2-decenoic acid was added to tomato juice (100% pure, salt-free) such that the concentration of the component was as shown in Table 1 below. […] In Table 1, those showing the growth of B. fulva are represented by “+,” and those showing no growth are represented by “−.”

SMILES	growth inhibition effect against B. fulva (B. fulva [1])	growth inhibition effect against N. primulina (N. primulina [2])	growth inhibition effect against N. primulina (N. primulina [3])	growth inhibition effect against B. fulva (B. fulva [4])
CC12CCC(CC1)C(C)(C)O2 [1,8-Cineole]	do not exhibit growth inhibition effect	do not exhibit growth inhibition effect	–	–
CCCCCCC/C=C/C(=O)O [2-Decenoic acid, (E)-dec-2-enoic acid]	–	–	exhibit the growth inhibition effect	exhibit the growth inhibition effect
Sc1nc2ccccc2s1 [2-Mercapto benzothiazole]	do not exhibit growth inhibition effect	do not exhibit growth inhibition effect	–	–
COc1cc(C(=O)O)cc(OC)c1O [4-Hydroxy-3,5-dimethoxybenzoic acid]	do not exhibit growth inhibition effect	do not exhibit growth inhibition effect	–	–
OCc1ccccc1 [Benzyl alcohol]	do not exhibit growth inhibition effect	do not exhibit growth inhibition effect	–	–
O=C(O)C=Cc1ccccc1 [Cinnamic acid]	do not exhibit growth inhibition effect	do not exhibit growth inhibition effect	–	–
CCOC(=O)/C=C/C(=O)OCC [Diethyl fumarate, diethyl (E)-but-2-enedioate]	–	–	exhibit the growth inhibition effect	exhibit the growth inhibition effect
CCCCCC=O [Hexanal]	do not exhibit growth inhibition effect	do not exhibit growth inhibition effect	–	–
CC(C)c1cccc(=O)c(O)c1 [Hinokitiol]	do not exhibit growth inhibition effect	do not exhibit growth inhibition effect	–	–
CCCCCCCCCCCCCCCC(=O)O [Palmitic acid]	do not exhibit growth inhibition effect	do not exhibit growth inhibition effect	–	–
O=C(O)c1ccccc1O [Salicylic acid]	do not exhibit growth inhibition effect	do not exhibit growth inhibition effect	–	–
C/C=C/c1ccc(OC)cc1 [Trans-anethole]	do not exhibit growth inhibition effect	do not exhibit growth inhibition effect	–	–
Cc1ccc(C(C)C)cc1 [p-Cymene]	do not exhibit growth inhibition effect	do not exhibit growth inhibition effect	–	–
CC1=CCC2CC1C2(C)C (stereo not drawn) [α-Pinene]	do not exhibit growth inhibition effect	do not exhibit growth inhibition effect	–	–
